# From the supplement of paper PMC8728848
# Some of the results follow.
# B1: Epa8 (Candida glabrata) (protein)
# chain: MGSSHHHHHHSSGLVPRGSHMASSRALSDYPLGCSPLLGTKLTPGLSMELYEYPLDNHGIGPHCWDPAYLNPEYPRTGFESHKLIGTAQNVMSLNFEHRTQDCHVEFSNLPASFNFPDQITLTNFTMLLYGYFKPKESGRYRFHMEADDLLLMNLGAGNAFDCCAHEATRNNLGDYIAYDIWAGTRKDVEVFLEKEVFYPLRLFFNNRDGRAALDFSYYLNGATEPGTDIPELLFSLPDGESCPAYI
# What was measured:
# Assay in all cases: glycan array binding signal (z-score within array); higher = stronger binding
# Settings in all cases: glycan notation: IUPAC condensed, linker removed
# [1] = biological target: Gal(b1-4)GlcNAc(b1-3)Gal(b1-4)GlcNAc(b1-2)Man(a1-3)[Gal(b1-4)GlcNAc(b1-3)Gal(b1-4)GlcNAc(b1-2)Man(a1-6)]Man(b1-4)GlcNAc(b1-4)[Fuc(a1-6)]GlcNAc
# Outline: (§1)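 The binding signal is a Z-score computed within each array and averaged over linkers. Arrays of the same protein sequence at different concentrations or buffers were also averaged together. Data originate from 3228 arrays in the Consortium for Functional Glycomics database, kept only where the protein sequence was available.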
# [2] = biological target: Gal(b1-4)GlcNAc(b1-3)Gal(b1-4)GlcNAc(b1-2)[Gal(b1-4)GlcNAc(b1-3)Gal(b1-4)GlcNAc(b1-6)]Man(a1-6)[Gal(b1-4)GlcNAc(b1-3)Gal(b1-4)GlcNAc(b1-2)Man(a1-3)]Man(b1-4)GlcNAc(b1-4)GlcNAc
# Outline: as §1
# [3] = biological target: Gal(b1-4)GlcNAc(b1-3)Gal(b1-4)GlcNAc(b1-2)[Gal(b1-4)GlcNAc(b1-3)Gal(b1-4)GlcNAc(b1-6)]Man(a1-6)[Gal(b1-4)GlcNAc(b1-3)Gal(b1-4)GlcNAc(b1-2)Man(a1-3)]Man(b1-4)GlcNAc(b1-4)[Fuc(a1-6)]GlcNAc
# Outline: as §1
# [4] = biological target: Gal(b1-4)GlcNAc(b1-3)Gal(b1-4)GlcNAc(b1-3)Gal(b1-4)GlcNAc
# Outline: as §1
# [5] = biological target: Gal(b1-4)GlcNAc(b1-3)Gal(b1-4)GlcNAc(b1-3)Gal(b1-4)GlcNAc(b1-2)Man(a1-3)[Gal(b1-4)GlcNAc(b1-3)Gal(b1-4)GlcNAc(b1-3)Gal(b1-4)GlcNAc(b1-2)Man(a1-6)]Man(b1-4)GlcNAc(b1-4)GlcNAc
# Outline: as §1
# [6] = biological target: Gal(b1-4)GlcNAc(b1-3)Gal(b1-4)GlcNAc(b1-3)Gal(b1-4)GlcNAc(b1-2)Man(a1-3)[Gal(b1-4)GlcNAc(b1-3)Gal(b1-4)GlcNAc(b1-3)Gal(b1-4)GlcNAc(b1-2)Man(a1-6)]Man(b1-4)GlcNAc(b1-4)[Fuc(a1-6)]GlcNAc
# Outline: as §1
# [7] = biological target: Gal(b1-4)GlcNAc(b1-3)Gal(b1-4)GlcNAc(b1-3)Gal(b1-4)GlcNAc(b1-2)[Gal(b1-4)GlcNAc(b1-3)Gal(b1-4)GlcNAc(b1-3)Gal(b1-4)GlcNAc(b1-6)]Man(a1-6)[Gal(b1-4)GlcNAc(b1-3)Gal(b1-4)GlcNAc(b1-3)Gal(b1-4)GlcNAc(b1-2)Man(a1-3)]Man(b1-4)GlcNAc(b1-4)[Fuc(a1-6)]GlcNAc
# Outline: as §1
# [8] = biological target: Gal(b1-4)GlcNAc(b1-3)Gal(b1-4)GlcNAc(b1-3)Gal(b1-4)GlcNAc(b1-3)Gal(b1-4)GlcNAc(b1-2)Man(a1-3)[Gal(b1-4)GlcNAc(b1-3)Gal(b1-4)GlcNAc(b1-3)Gal(b1-4)GlcNAc(b1-3)Gal(b1-4)GlcNAc(b1-2)Man(a1-6)]Man(b1-4)GlcNAc(b1-4)GlcNAc
# Outline: as §1
# [9] = biological target: Gal(b1-4)GlcNAc(b1-3)Gal(b1-4)GlcNAc(b1-3)Gal(b1-4)GlcNAc(b1-3)Gal(b1-4)GlcNAc(b1-2)Man(a1-3)[Gal(b1-4)GlcNAc(b1-3)Gal(b1-4)GlcNAc(b1-3)Gal(b1-4)GlcNAc(b1-3)Gal(b1-4)GlcNAc(b1-2)Man(a1-6)]Man(b1-4)GlcNAc(b1-4)[Fuc(a1-6)]GlcNAc
# Outline: as §1
# [10] = biological target: Gal(b1-4)GlcNAc(b1-3)Gal(b1-4)GlcNAc(b1-3)Gal(b1-4)GlcNAc(b1-3)Gal(b1-4)GlcNAc(b1-2)[Gal(b1-4)GlcNAc(b1-3)Gal(b1-4)GlcNAc(b1-3)Gal(b1-4)GlcNAc(b1-3)Gal(b1-4)GlcNAc(b1-6)]Man(a1-6)[Gal(b1-4)GlcNAc(b1-3)Gal(b1-4)GlcNAc(b1-3)Gal(b1-4)GlcNAc(b1-3)Gal(b1-4)GlcNAc(b1-2)Man(a1-3)]Man(b1-4)GlcNAc(b1-4)[Fuc(a1-6)]GlcNAc
# Outline: as §1
# [11] = biological target: Gal(b1-4)GlcNAc(b1-3)Gal(b1-4)GlcNAc(b1-3)Gal(b1-4)GlcNAc(b1-3)Gal(b1-4)GlcNAc(b1-3)Gal(b1-4)GlcNAc(b1-2)Man(a1-3)[Gal(b1-4)GlcNAc(b1-3)Gal(b1-4)GlcNAc(b1-3)Gal(b1-4)GlcNAc(b1-3)Gal(b1-4)GlcNAc(b1-3)Gal(b1-4)GlcNAc(b1-2)Man(a1-6)]Man(b1-4)GlcNAc(b1-4)GlcNAc
# Outline: as §1
# [12] = biological target: Gal(b1-4)GlcNAc(b1-3)Gal(b1-4)GlcNAc(b1-3)Gal(b1-4)GlcNAc(b1-3)Gal(b1-4)GlcNAc(b1-3)Gal(b1-4)GlcNAc(b1-2)Man(a1-3)[Gal(b1-4)GlcNAc(b1-3)Gal(b1-4)GlcNAc(b1-3)Gal(b1-4)GlcNAc(b1-3)Gal(b1-4)GlcNAc(b1-3)Gal(b1-4)GlcNAc(b1-2)Man(a1-6)]Man(b1-4)GlcNAc(b1-4)[Fuc(a1-6)]GlcNAc
# Outline: as §1
# [13] = biological target: Gal(b1-4)GlcNAc(b1-3)Gal(b1-4)GlcNAc(b1-3)Gal(b1-4)GlcNAc(b1-3)Gal(b1-4)GlcNAc(b1-3)Gal(b1-4)GlcNAc(b1-2)[Gal(b1-4)GlcNAc(b1-3)Gal(b1-4)GlcNAc(b1-3)Gal(b1-4)GlcNAc(b1-3)Gal(b1-4)GlcNAc(b1-3)Gal(b1-4)GlcNAc(b1-6)]Man(a1-6)[Gal(b1-4)GlcNAc(b1-3)Gal(b1-4)GlcNAc(b1-3)Gal(b1-4)GlcNAc(b1-3)Gal(b1-4)GlcNAc(b1-3)Gal(b1-4)GlcNAc(b1-2)Man(a1-3)]Man(b1-4)GlcNAc(b1-4)[Fuc(a1-6)]GlcNAc
# Outline: as §1
# [14] = biological target: Gal(b1-4)GlcNAc(b1-3)Gal(b1-4)GlcNAc(b1-3)Gal(b1-4)GlcNAc(b1-3)Gal(b1-4)GlcNAc(b1-3)Gal(b1-4)GlcNAc(b1-3)Gal(b1-4)GlcNAc(b1-2)Man(a1-3)[Gal(b1-4)GlcNAc(b1-3)Gal(b1-4)GlcNAc(b1-3)Gal(b1-4)GlcNAc(b1-3)Gal(b1-4)GlcNAc(b1-3)Gal(b1-4)GlcNAc(b1-3)Gal(b1-4)GlcNAc(b1-2)Man(a1-6)]Man(b1-4)GlcNAc(b1-4)GlcNAc
# Outline: as §1
# [15] = biological target: Gal(b1-4)GlcNAc(b1-3)Gal(b1-4)GlcNAc(b1-3)GalNAc
# Outline: as §1
# [16] = biological target: Gal(b1-4)GlcNAc(b1-3)Gal(b1-4)GlcNAc(b1-3)[Gal(b1-4)GlcNAc(b1-3)Gal(b1-4)GlcNAc(b1-6)]GalNAc
# Outline: as §1
# [17] = biological target: Gal(b1-4)GlcNAc(b1-3)Gal(b1-4)GlcNAc(b1-6)[Gal(b1-3)]GalNAc
# Outline: as §1
# [18] = biological target: Gal(b1-4)GlcNAc(b1-3)Gal(b1-4)[Fuc(a1-3)]GlcNAc(b1-3)Gal(b1-4)[Fuc(a1-3)]GlcNAc
# Outline: as §1
# [19] = biological target: Gal(b1-4)GlcNAc(b1-3)GalNAc
# Outline: as §1
# [20] = biological target: Gal(b1-4)GlcNAc(b1-3)[Fuc(a1-3)GlcNAc(b1-6)]Gal(b1-4)Glc
# Outline: as §1
# [21] = biological target: Gal(b1-4)GlcNAc(b1-3)[Gal(b1-4)GlcNAc(b1-6)]Gal(b1-4)GlcNAc
# Outline: as §1
# [22] = biological target: Gal(b1-4)GlcNAc(b1-3)[GlcNAc(b1-6)]Gal(b1-4)GlcNAc
# Outline: as §1
# [23] = biological target: Gal(b1-4)GlcNAc(b1-6)Gal(b1-4)GlcNAc
# Outline: as §1
# [24] = biological target: Gal(b1-4)GlcNAc(b1-6)GalNAc
# Outline: as §1
# [25] = biological target: Gal(b1-4)GlcNAc(b1-6)[Gal(b1-3)]GalNAc
# Outline: as §1
# [26] = biological target: Gal(b1-4)GlcNAc(b1-6)[Gal(b1-4)GlcNAc(b1-3)]GalNAc
# Outline: as §1
# Gal(b1-4)GlcNAc6P = biological target: Gal(b1-4)GlcNAc6P
# Outline: as §1
# Gal(b1-6)Gal = biological target: Gal(b1-6)Gal
# Outline: as §1
# Gal3S(b1-3)GalNAc = biological target: Gal3S(b1-3)GalNAc
# Outline: as §1
# Gal3S(b1-3)GlcNAc = biological target: Gal3S(b1-3)GlcNAc
# Outline: as §1
# [27] = biological target: Gal3S(b1-3)[Fuc(a1-4)]GlcNAc
# Outline: as §1
# Gal3S(b1-4)Glc = biological target: Gal3S(b1-4)Glc
# Outline: as §1
# Gal3S(b1-4)Glc6S = biological target: Gal3S(b1-4)Glc6S
# Outline: as §1
# Gal3S(b1-4)GlcNAc = biological target: Gal3S(b1-4)GlcNAc
# Outline: as §1
# [28] = biological target: Gal3S(b1-4)[Fuc(a1-3)]Glc6S
# Outline: as §1
# [29] = biological target: Gal3S(b1-4)[Fuc(a1-3)]GlcNAc
# Outline: as §1
# [30] = biological target: Gal3S(b1-4)[Fuc(a1-3)]GlcNAc6S
# Outline: as §1
# Gal3S4S(b1-4)GlcNAc = biological target: Gal3S4S(b1-4)GlcNAc
# Outline: as §1
# Gal3S6S(b1-4)GlcNAc = biological target: Gal3S6S(b1-4)GlcNAc
# Outline: as §1
# Gal3S6S(b1-4)GlcNAc6S = biological target: Gal3S6S(b1-4)GlcNAc6S
# Outline: as §1
# Gal4S(b1-4)GlcNAc = biological target: Gal4S(b1-4)GlcNAc
# Outline: as §1
# Gal4S6S(b1-4)GlcNAc = biological target: Gal4S6S(b1-4)GlcNAc
# Outline: as §1
# Gal6P(b1-4)GlcNAc = biological target: Gal6P(b1-4)GlcNAc
# Outline: as §1
# Gal6S(b1-3)GlcNAc = biological target: Gal6S(b1-3)GlcNAc
# Outline: as §1
# Gal6S(b1-3)GlcNAc6S = biological target: Gal6S(b1-3)GlcNAc6S
# Outline: as §1
binder,measurement,setting,value
B1,glycan array binding signal (z-score),[1],-0.085
same,glycan array binding signal (z-score),[2],1.1
same,glycan array binding signal (z-score),[3],0.741
same,glycan array binding signal (z-score),[4],-0.62
same,glycan array binding signal (z-score),[5],1.07
same,glycan array binding signal (z-score),[6],0.507
same,glycan array binding signal (z-score),[7],0.718
same,glycan array binding signal (z-score),[8],0.099
same,glycan array binding signal (z-score),[9],0.578
same,glycan array binding signal (z-score),[10],0.638
same,glycan array binding signal (z-score),[11],0.357
same,glycan array binding signal (z-score),[12],1.2
same,glycan array binding signal (z-score),[13],0.265
same,glycan array binding signal (z-score),[14],1.64
same,glycan array binding signal (z-score),[15],1.13
same,glycan array binding signal (z-score),[16],0.839
same,glycan array binding signal (z-score),[17],0.028
same,glycan array binding signal (z-score),[18],-0.452
same,glycan array binding signal (z-score),[19],-0.402
same,glycan array binding signal (z-score),[20],-0.618
same,glycan array binding signal (z-score),[21],0.149
same,glycan array binding signal (z-score),[22],-1.46
same,glycan array binding signal (z-score),[23],-0.084
same,glycan array binding signal (z-score),[24],0.443
same,glycan array binding signal (z-score),[25],0.343
same,glycan array binding signal (z-score),[26],-0.35
same,glycan array binding signal (z-score),Gal(b1-4)GlcNAc6P,-0.026
same,glycan array binding signal (z-score),Gal(b1-6)Gal,-1.7
same,glycan array binding signal (z-score),Gal3S(b1-3)GalNAc,0.161
same,glycan array binding signal (z-score),Gal3S(b1-3)GlcNAc,-0.119
same,glycan array binding signal (z-score),[27],0.899
same,glycan array binding signal (z-score),Gal3S(b1-4)Glc,-0.058
same,glycan array binding signal (z-score),Gal3S(b1-4)Glc6S,0.684
same,glycan array binding signal (z-score),Gal3S(b1-4)GlcNAc,-0.968
same,glycan array binding signal (z-score),[28],1.36
same,glycan array binding signal (z-score),[29],0.067
same,glycan array binding signal (z-score),[30],0.622
same,glycan array binding signal (z-score),Gal3S4S(b1-4)GlcNAc,-1.32
same,glycan array binding signal (z-score),Gal3S6S(b1-4)GlcNAc,-0.028
same,glycan array binding signal (z-score),Gal3S6S(b1-4)GlcNAc6S,0.968
same,glycan array binding signal (z-score),Gal4S(b1-4)GlcNAc,-1.81
same,glycan array binding signal (z-score),Gal4S6S(b1-4)GlcNAc,0.342
same,glycan array binding signal (z-score),Gal6P(b1-4)GlcNAc,-0.02
same,glycan array binding signal (z-score),Gal6S(b1-3)GlcNAc,-0.036
same,glycan array binding signal (z-score),Gal6S(b1-3)GlcNAc6S,1.85

# Reformatted: entries from further up.
binder | measurement | setting | value
B1 | glycan array binding signal (z-score) | [1] | -0.085
same | glycan array binding signal (z-score) | [30] | 0.622
